# PubChem BioAssay AID652272 – Drosophila RNAi Screening Center, 2013
# Aim: 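Genes whose knock-down decreases or increases Hedgehog reporter output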 (primary screen)
# Cell system: Drosophila clone 8 (Cl8) cells
# Knock-down reagent: long dsRNA against Drosophila genes
# Detection: 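Firefly light from a Hedgehog-responsive ptc promoter reporter and Renilla reference light, both read on a plate reader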
# Scale: firefly Hh reporter signal: higher = more ptc reporter light; Renilla reference signal: higher = more Renilla control light
# Hit rule: 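Called a hit if the two-replicate mean z-score lies below -2 or above +3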
# Meaning of the calls: active = hit: reporter lowered or raised; inactive = not a hit
# The screen tested about 21,000 reagents; shown is a random part of those with a known target gene and a result. Over the whole deposit, 503 (2.4%) are marked active. 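Raw plate light values, not normalised; calls rest on replicate z-scores that were not deposited; hits include reporter decreases as well as increases.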 Names joined by + are all predicted targets of the reagent. No sequences are given here. Not given: the amount of reagent, the time to read-out.
gene,amplicon,"firefly Hh reporter signal, replicate 1","firefly Hh reporter signal, replicate 2","firefly Hh reporter signal, replicate 3","Renilla reference signal, replicate 1","Renilla reference signal, replicate 2",Call
CG32091 (GeneID 39307),DRSC10141,51079,49541,35579,6210,3347,inactive
CG32091 (GeneID 39307),DRSC10820,35108,54665,67563,5113,4748,inactive
rin (GeneID 47998),DRSC17045,43802,53708,,1685,1845,inactive
CG32445 (GeneID 261603),DRSC11678,86208,96053,,3133,2773,inactive
CG11035 (GeneID 40953),DRSC14287,1.23e5,99552,,4775,3920,inactive
TfIIFalpha (GeneID 40790),DRSC12608,70922,48199,,2651,1792,inactive
Cpr72Eb (GeneID 39815),DRSC09870,1.01e5,,,6893,3213,inactive
CG12278 (GeneID 42486),DRSC14494,5.31e5,72807,,25980,2171,inactive

A portion from the list above, for reference:
gene,amplicon,"firefly Hh reporter signal, replicate 1","firefly Hh reporter signal, replicate 2","firefly Hh reporter signal, replicate 3","Renilla reference signal, replicate 1","Renilla reference signal, replicate 2",Call
CG11035 (GeneID 40953),DRSC14287,1.23e5,99552,,4775,3920,inactive
TfIIFalpha (GeneID 40790),DRSC12608,70922,48199,,2651,1792,inactive
Cpr72Eb (GeneID 39815),DRSC09870,1.01e5,,,6893,3213,inactive

More reagents follow.
gene,amplicon,"firefly Hh reporter signal, replicate 1","firefly Hh reporter signal, replicate 2","firefly Hh reporter signal, replicate 3","Renilla reference signal, replicate 1","Renilla reference signal, replicate 2",Call
Ugt50B3 (GeneID 246614),DRSC04778,2.05e5,3.00e5,,5078,13312,inactive
Ugt50B3 (GeneID 246614),DRSC04779,2.37e5,3.13e5,,5772,14426,inactive
CycE (GeneID 34924),DRSC03295,34103,38368,,1761,1910,inactive
CycE (GeneID 34924),DRSC03296,86474,42162,,2579,4248,inactive
ara (GeneID 39439),DRSC11322,57744,11540,36064,2000,2807,inactive
CG14662 + asRNA:CR43478,DRSC12248,68906,72811,,2794,1160,inactive
Ret (GeneID 43875),DRSC03409,59595,87731,,2819,3429,inactive
Ret (GeneID 43875),DRSC03410,78835,72481,,1938,5906,inactive
CG6271 (GeneID 43252),DRSC16006,80873,59476,,1901,1900,inactive
UQCR-14 (GeneID 32586),DRSC19870,1.29e5,3.74e5,,4038,12220,inactive
T3dh + pgc,DRSC04659,55858,41136,,2371,1810,inactive
Mco4 (GeneID 326221),DRSC20061,65959,2.28e5,,2359,9268,inactive
jv (GeneID 318008),DRSC08831,73770,1.81e5,,1991,8087,inactive
jv (GeneID 318008),DRSC08832,1.10e5,2.24e5,,3094,9355,inactive
Rh6 (GeneID 41889),DRSC16823,64947,1.14e5,,2333,3335,inactive
